System: corresponding antibody coated on capillary inner surface
Test: Detection of individual drugs in artificial sweat, inhibition curves (capillary competitive chemiluminescent ELISA)
Format: binding
Settings: y = a + b/(1+(x/x0)^p), x in ng/mL; used as calibration curve

CCC(=O)C(CC(C)N(C)C)(c1ccccc1)c1ccccc1 (stereo not shown) [Methadone, methadone]
midpoint parameter of logistic fit of inhibition curve B/B0 (%): 0.09 ng/mL

From patent publication US20230051263A1, “DEVICE FOR RAPID AND QU[…] OF DRUGS OF ABUSE IN SWEAT” (THE REGENTS OF THE UNIVERSITY OF MICHIGAN, priority 2020, published 2023)
